“And” between values parts separate entries of the source, which are not always exact repeats. Identical values can stand only once. In all, about 300,000 compounds went through this assay and about 3,700 (1.2%) were called active. The inconclusive results got no clear call from the source; some entries with a clear call stand among them for comparison. Calls come from the whole dose curve; tested in HEK293 cells. Potencies beside an inconclusive call are fits to weak or partial responses and may not hold up.
Assay: qHTS for Inhibitors of binding or entry into cells for Lassa Virus; note: nearly all actives have a fitted effect of over 50% in size
Conditions: Lassa virus pseudotype entry inhibition, cell reporter; series mostly up to 37.9 µM
Potency is the fitted concentration of half-maximal effect.

SMILES	Potency
COc1ccc(NC(=O)CCOc2ccccc2C)cc1S(=O)(=O)N1CCCCC1	inconclusive: 10 µM [inhibitor, partial curve, poor fit]
COc1ccccc1/C=N/NC(=O)CSc1cc(C)nc2ccccc12	inconclusive: 2.51 µM [inhibitor, full curve, poor fit]
CC(=O)c1sc(N/N=C/c2ccc(C(C)C)cc2)nc1C	inconclusive: 35.5 µM [inhibitor, single point]
COc1ccc(OCC(=O)Nn2c(-c3ccc(OC)cc3)nc3ccccc3c2=O)cc1	inactive
Cc1nn(S(=O)(=O)c2ccccc2)c(C)c1Sc1ccc([N+](=O)[O-])cc1	inactive
C=C(C)Cc1c(C)c(C#N)c2[nH]c3ccccc3n2c1=O	inconclusive: 20 µM [inhibitor, partial curve, poor fit]
O=C(NCc1ccccc1)c1ccc(Cl)nc1	inactive
COc1cc(Cl)c(NS(=O)(=O)c2ccc(-c3ccc(=O)[nH]n3)o2)c(OC)c1	inactive
CCOCc1cnc(C)nc1NCC(=O)c1c(C)n(C)c2ccc(OC)cc12	inactive
CC(C)Cc1nnc(NC(=O)C2CSC3(C)CCC(=O)N23)s1 (stereo unspecified)	inconclusive: 11.2 µM [activator, partial curve, poor fit]
Cc1cccc(N2CCN(C(=O)c3cc4c(=O)n(C)c5ccccc5c4s3)CC2)c1C	inactive
COc1ccc(NC(=O)c2ccc(-c3ccccc3C(F)(F)F)o2)cc1	inactive and inconclusive: 2.23 µM [activator, full curve]
COc1ccc(CNCC(O)COc2cccc3c2OC(C)(C)C3)cc1 (stereo unspecified)	inconclusive: 6.31 µM [inhibitor, partial curve, poor fit]
Cc1cc(C)nc(NCc2ccc(Cl)cc2)n1	inconclusive: 3.98 µM [activator, partial curve]
O=C(NCC1CCCO1)c1cccc(NS(=O)(=O)c2ccc(Br)cc2)c1 (stereo unspecified)	inconclusive: 3.16 µM [inhibitor, partial curve, poor fit]
CCC1CCCCN1C(=O)CSc1nc2c([nH]c3ccccc32)c(=O)n1-c1cccc(OC)c1 (stereo unspecified)	inconclusive: 31.6 µM [inhibitor, single point]
Cc1cc(Cl)c(S(=O)(=O)Nc2ccc3c(c2)OCCO3)cc1OCC(=O)NC1CCCCC1	inactive
CCOC(=O)N1CCC(=NNC(=O)COc2cccc(C)c2)CC1	inconclusive: 3.55 µM [activator, partial curve, poor fit]
COc1ccccc1/C=N/NC(=O)c1ccccc1Cl	inactive
[N-]=[N+]=NC1C[C@H](n2ccc(=O)[nH]c2=O)O[C@@H]1CO (stereo partly specified)	inactive
COc1cccc(/C=N/Nc2nnc3c(n2)[nH]c2ccccc23)c1OC	inconclusive: 1.78 µM [activator, partial curve, poor fit]
O=c1c2ccccc2n(CC(O)CN2CCOCC2)c2ccccc12 (stereo unspecified)	inconclusive: 35.5 µM [inhibitor, single point]

SMILES	Potency
CCOc1ccc(/C=N/OCC(=O)NC(c2ccccc2)c2ccccc2)cc1	inconclusive: 12.6 µM [inhibitor, single point]
COC(=O)c1nc(-c2ccc3c(n2)C(=O)C(N)=C(OC)C3=O)c(N)c(-c2ccc(OC)c(OC)c2O)c1C	inconclusive: 2.51 µM [inhibitor, full curve]
Cc1nonc1OCC(C)(COc1nonc1C)NC(=O)c1ccccc1	inconclusive: 20.6 µM [activator, single point]
CCc1ccc(/C=C2\Oc3cc(OC(=O)N4CCOCC4)ccc3C2=O)cc1	inconclusive: 1.12 µM [inhibitor, full curve, poor fit]
Cc1ccc(/C=N/Nc2nc3ccccc3[nH]2)s1	inconclusive: 0.631 µM [activator, full curve, poor fit]
O=C(N/N=C/c1cccc(F)c1)c1c(O)c2c([nH]c1=O)CCCC2	inconclusive: 5.62 µM [inhibitor, single point]
Cc1cccc(NC(=O)c2cccs2)n1	inconclusive: 35.5 µM [activator, single point]
O=C(CSc1nc2c([nH]c3ccccc32)c(=O)n1-c1ccccc1)c1ccccc1	inconclusive: 31.6 µM [activator, single point]
Cc1ccc(N2C(=O)C3C(c4ccccc4)N4CCCN4C3(C)C2=O)cc1 (stereo unspecified)	inconclusive: 1.26 µM [activator, single point]
O=C(NCc1cccs1)C1CCN(C(=O)N2CCOc3ccccc32)CC1	inactive
Cc1ccc(-n2c(SCC(=O)NC3CCS(=O)(=O)C3)nc3ccccc3c2=O)cc1 (stereo unspecified)	inactive
CCOc1ccccc1Nc1ncccc1C(=O)O	inactive
COc1cc(SC#N)ccc1N=Cc1c(C)[nH]n(-c2ccc(C)cc2)c1=O	inconclusive: 1.41 µM [inhibitor, partial curve, poor fit]
COc1ccc(S(=O)(=O)N(C)CC(=O)NC2CC2)cc1OC	inactive
CCOC(=O)CSc1nn(-c2ccccc2)c(=S)s1	inconclusive: 11.2 µM [activator, partial curve, poor fit]
Cc1ccc(OCC(=O)Nc2ccc(O)c(-c3nc4ccccc4o3)c2)cc1	inconclusive: 4.47 µM [inhibitor, partial curve, poor fit]
Cc1[nH]c2ccccc2c1/C=N/NC(=O)c1cc(-c2ccccc2)n[nH]1	inconclusive: 12.6 µM [inhibitor, partial curve, poor fit]
Cc1ccc(C)c(S(=O)(=O)NCC(c2ccco2)S(=O)(=O)c2ccc(F)cc2)c1 (stereo unspecified)	inconclusive: 7.08 µM [inhibitor, partial curve, poor fit]
CCOc1ccc(C(=O)Nc2ccc(S(=O)(=O)N3CCCCC3c3cccnc3)cc2)cc1 (stereo unspecified)	inconclusive: 22.4 µM [inhibitor, single point]
NS(=O)(=O)c1ccc(N/N=C2/CCCCC2C2CCCCC2)c([N+](=O)[O-])c1 (stereo unspecified)	inconclusive: 29.1 µM [inhibitor, single point]
CC(=O)c1sc(N)c(C(=O)OC(C)C)c1C	inconclusive: 0.282 µM [activator, full curve, poor fit]
NCCCNCCCCNCCCN	inactive

SMILES	Potency
COC(=O)CSc1nnc2n1C(C)(C)Cc1ccccc1-2	inactive
O=S(=O)(c1cccs1)N1CCN(C/C=C/c2ccccc2)CC1	inactive
O=C1/C(=C\c2cccc(O)c2O)SC(=S)N1Cc1ccccc1	inconclusive: 20 µM [inhibitor, partial curve, poor fit]
CC(=O)Nc1ccc(S(=O)(=O)N=S(C)(C)=O)cc1	inconclusive: 15.8 µM [activator, partial curve, poor fit]
O=C1C(C=Nc2ccc(F)cc2)=C(O)c2ccccc21	inconclusive: 3.98 µM [inhibitor, full curve, poor fit]
COc1ccc(S(=O)(=O)N/N=c2\oc3c(OC)cccc3cc2S(=O)(=O)c2ccc(C)cc2)cc1OC	inconclusive: 10 µM [inhibitor, partial curve, poor fit]
CCOc1ccc(CCNC(=O)c2cnc3sc(N4CCOCC4)nn3c2=O)cc1	inactive
Cc1cccc2c(N=Nc3ccc(S(N)(=O)=O)cc3)c(O)[nH]c12	inconclusive: 0.141 µM [activator, full curve, poor fit]
C/C(=N\NC(=O)c1ccc(-c2ccccc2)cc1)c1cccc(N)c1	inconclusive: 35.5 µM [inhibitor, single point]
CCn1ncc([C@@H]2C[C@H]3CN(Cc4cccc(Cl)c4)C(=O)[C@]34CCCN24)c1C	inactive
O=c1c2ccccc2[nH]c(=S)n1CCc1ccccc1	inconclusive: 29.1 µM [inhibitor, single point]
O=C(COc1ccccc1)Nc1ncc2c(n1)CCCC2=O	inactive
CCN(CC)CCNC(=O)c1cc(Cl)c(N)cc1OC	inconclusive: 4.11 µM [inhibitor, partial curve, poor fit]
O=C(Nc1ccc(N2CCN(C(=O)c3ccc(Cl)cc3)CC2)cc1)c1ccc(Br)o1	inconclusive: 11.2 µM [inhibitor, partial curve, poor fit]
N#Cc1c(N)nc(Sc2ccc(Cl)cc2)c(C#N)c1-c1ccccc1Cl	inconclusive: 14.1 µM [inhibitor, partial curve]
Cn1cccc1/C=C1\CCc2ccccc2C1=O	inconclusive: 5.62 µM [inhibitor, full curve, poor fit]
CCOC(=O)N1CCN(C(=O)c2ccc(S(=O)(=O)Nc3ccc(C)cc3)cc2)CC1	inconclusive: 6.31 µM [inhibitor, full curve, poor fit]
CCc1ccc(-n2nc(C)c3c(C(=O)NCCc4ccc(OC)c(OC)c4)cc(C)nc32)cc1	inconclusive: 12.6 µM [inhibitor, partial curve, poor fit]
CCC1CCCCN1C(=O)Cn1c(=O)n(CCCC(=O)NCc2ccco2)c(=O)c2sccc21 (stereo unspecified)	inconclusive: 5.62 µM [inhibitor, single point]
CCN(CC(=O)Nc1cc(C)on1)CC(=O)Nc1ccccc1C(F)(F)F	inactive
CCc1ccc(CNCCc2ccccc2F)cc1	inconclusive: 1.58 µM [activator, partial curve, poor fit]
N#C/C(=C/c1ccc(-c2ccc(C(=O)O)c(Cl)c2)o1)C(=O)NCC1CCCO1 (stereo unspecified)	inconclusive: 10 µM [activator, partial curve, poor fit]
